Values of other authors in patent US20130337020A1, “Pharmaceutical Compositions” (Alpharma Pharmaceuticals LLC, priority 2006, published 2013).

Details: hydrochloride salt; cited from earlier work

Compound: O=C1CC[C@@]2(O)[C@H]3Cc4ccc(O)c5c4[C@@]2(CCN3CC2CC2)[C@H]1O5 [naltrexone]
- solubility in water: about 100 mg/cc
